At least one compound was matched to its structure with a doubt left.
Tested on: HCC high-risk genes in human fibrotic liver tissue
Assay: Organotypic ex vivo culture of surgically resected human fibrotic liver tissue slices, PLS/HCC risk signature by GSEA
Assay type: cell-based
Conditions: erlotinib 5 μM, pioglitazone 10 μM
Method: Liver Slices. Fresh liver tissue sections (300 μm-thick) were prepared from surgically resected fibrotic livers from HCC patients using Krumdieck Tissue Slicer MD6000 (Alabama Research and Development, Munford, Ala., USA).
Transcriptional Analyses. Liver cells were lysed in TRI-reagent (Molecular Research Center; Cincinnati, Ohio, USA), and RNA was purified using Direct-zol RNA MiniPrep (Zymo Research, Irvine, Calif., USA) according to manufacturer's instructions. RNA quantity and RNA quality were assessed using NanoDrop (Thermo Scientific, Waltham, Mass., USA) and Bioanalyzer 2100 ([…]) with a quality cut-off of RNA Integrity Number >8. […] HCC high risk gene expression was analyzed by qRT-PCR using specific TaqMan Gene Expression Assays (Life Technologies, Carlsbad, Calif., USA) or the ANXA3 and GPX2 primer sets previously described (Pan et al., Stem Cells, 2015, 33: 354-366 and Brault et al., Gut, 2014, 65: 44-54, respectively). The expression of GAPDH mRNA was analyzed as a reference gene using a specific TaqMan Gene Expression Assay (Life Technologies, Carlsbad, Calif., USA) or the RT2 qPCR Primer Assay (Qiagen, Hilden, Germany). Relative gene expression level was calculated by the ΔΔCt method as previously described (Schmittgen et al., Nat. Protoc., 2008, 3: 1101-1108). […]

Structure (SMILES): CCc1ccc(CCOc2ccc(CC3SC(=O)NC3=O)cc2)nc1 (stereo not shown) [Pioglitazone]
- PLS / HCC high-risk genes in ex vivo liver tissue: reverted
